Amino acid sequences for entries named in this document (tags omitted). A change or cut given only in a name is not applied to a line headed by its entry.
UniProt Q01638: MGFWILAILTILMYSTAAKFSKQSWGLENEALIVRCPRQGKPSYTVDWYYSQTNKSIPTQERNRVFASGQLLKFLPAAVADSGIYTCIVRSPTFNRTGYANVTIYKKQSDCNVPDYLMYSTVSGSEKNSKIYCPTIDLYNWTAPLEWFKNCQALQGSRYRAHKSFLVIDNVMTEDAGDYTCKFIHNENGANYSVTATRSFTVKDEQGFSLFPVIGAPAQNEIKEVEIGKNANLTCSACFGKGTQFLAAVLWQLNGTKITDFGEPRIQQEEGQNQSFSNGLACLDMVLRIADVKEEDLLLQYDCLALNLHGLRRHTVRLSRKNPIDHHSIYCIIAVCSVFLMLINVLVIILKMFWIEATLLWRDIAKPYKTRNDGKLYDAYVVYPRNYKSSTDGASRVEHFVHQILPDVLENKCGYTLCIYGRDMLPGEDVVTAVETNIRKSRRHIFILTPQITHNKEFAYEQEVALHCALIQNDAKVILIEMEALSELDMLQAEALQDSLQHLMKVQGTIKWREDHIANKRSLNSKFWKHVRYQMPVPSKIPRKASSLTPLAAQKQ

“And” between values parts separate entries of the source, which are not always exact repeats. Equal entries are not always repeated. Screen size: about 78,000 compounds; about 1,800 (2.3%) were called active. Inconclusive results, whose numbers are uncertain, are shown with a selection of clear calls. No stated cut-off is given here; in the data, active means inhibition above about 30%; inconclusive means mostly about 10% to 28%; inactive means weaker than that.
What follows are molecules tested against Interleukin-1 receptor-like 1 (Homo sapiens) (UniProt Q01638) (assay: blocks human ST2 binding to IL-33, primary screen, biochemical, AlphaLISA (AID 1259354)). Settings: AlphaLISA ST2-Fc/biotin-IL-33 interaction, 1 h; at 17 µM, hits give high values.
In the case of `Cc1ccc(O)c(NC(=O)c2cc(-c3cccs3)on2)c1`, the inhibition is reported as inconclusive: 10%. With `O=C(Cn1c(-c2ccccc2F)nc2ccccc2c1=O)Nc1ccc(F)c(Cl)c1` the inhibition was “inactive”. For `COCCNc1ncnc2c1cnn2-c1ccc(OC)cc1`, the inhibition was “inactive”. For `O=C1NN(c2ccc(Br)cc2)C(=O)/C1=C\c1cc([N+](=O)[O-])c(Cl)cc1Cl`, the inhibition was inconclusive: 14%. In the case of `CN1C(=O)N(Cc2cccnc2)C(=O)C12CCN(Cc1ccc(-c3cccc(Cl)c3)o1)CC2`, the inhibition is reported as inconclusive: 10%. For `O=C(NCCc1cnc[nH]1)C1CCCN(C2CCN(Cc3ccccc3)CC2)C1` (centres undefined), the inhibition was inconclusive: 20%. In the case of `c1coc(-c2ccc(-c3nccn3CCn3cccn3)cc2)c1`, the inhibition is reported as inconclusive: 11%. For `COc1cc(/C=C(\C#N)c2nc(-c3ccc(Br)cc3)cs2)ccc1O`, the inhibition was active: 33%. In the case of `CC1=CCC(c2nnc(C)o2)C(c2ccc([N+](=O)[O-])cc2)C1` (centres undefined), the inhibition is reported as inconclusive: 16%. For `COc1ccccc1NC(=O)C(CCSC)N1C(=O)c2cc(Cl)c(Cl)cc2C1=O` (centres undefined), the inhibition was inconclusive: 15%. `COc1ccc(C2=N/C(=C\c3ccc(C)cc3)C(=O)O2)cc1[N+](=O)[O-]` was tested, and the inhibition was inconclusive: 26%. `COc1ccc(Cl)cc1NC(=O)C1CSC(c2ccncc2)=N1` (centres undefined) was tested, and the inhibition was inconclusive: 12%. For `COc1ccccc1OCc1nc(C#N)c(NCCCn2ccnc2)o1`, the inhibition was inconclusive: 12%. For `CCOC(=O)c1cnc(SC)nc1-c1ccc(OC)nc1`, the inhibition was inconclusive: 18%. `C[C@@]12C(=O)OC(=O)[C@]1(C)[C@H]1CC[C@@H]2O1` was tested, and the inhibition was inconclusive: 10%. In the case of `CCOC(=O)c1c(NC(=O)COc2ccc(F)cc2)sc(C(C)=O)c1C`, the inhibition is reported as inconclusive: 16%. For `O=C(NCc1ccco1)c1ccc2c(c1)N(Cc1ccc(Cl)cc1)C(=O)c1ccccc1S2`, the inhibition was “inactive”. With `CC1=CC(C)(C)Nc2ccc(OC(=O)c3cccc(Cl)c3)cc21` the inhibition was inconclusive: 22%. `O=C(CCCn1cnc([N+](=O)[O-])n1)Nc1cc(Br)ccc1O` was tested, and the inhibition was inconclusive: 24% and inconclusive: 10%. For `Cc1c(N=Cc2ccc(Cl)o2)c(=O)n(-c2ccccc2)n1C`, the inhibition was “inactive”. For `COc1ccc(NC(=O)N[C@@H]2C=C[C@@H](c3c(C)nn(-c4ccccn4)c3C)C2)cc1`, the inhibition was inconclusive: 24%. In the case of `CN(C)CC1(O)CCN(C(=O)c2ccc(-n3cnnc3)cc2Cl)C1` (centres undefined), the inhibition is reported as inconclusive: 15%. In the case of `CCOc1cc([C@H]2N[C@](CO)(c3ccccc3)[C@H]3CN(C)C[C@@H]23)ccc1O`, the inhibition is reported as inconclusive: 15%. With `CN1C(=O)c2cccc3c(C(=O)c4ccccc4)ccc(c23)C1=O` the inhibition was “inactive”. With `CC(NC(=O)c1cc(C2CC2)on1)c1ccccc1` (centres undefined) the inhibition was “inactive”. For `CSCC(=O)N1CCC(CCC(=O)N2CCC(Cc3ccccc3)CC2)CC1`, the inhibition was inconclusive: 23%. For `Cc1ccc(S(=O)(=O)c2nc(C)oc2NCc2ccco2)cc1`, the inhibition was inconclusive: 15%. In the case of `CC(=O)N[C@H]1C[C@@H](c2cnc(-c3ccccn3)nc2)O[C@@H](C2CCCCC2)C1`, the inhibition is reported as inconclusive: 13%. `Cc1nc2c(ccc3nc(NC(=O)COc4ccc(Cl)cc4)sc32)s1` was tested, and the inhibition was inconclusive: 26%. In the case of `O=C(O)CC1C(=O)NCCN1Cc1cccnc1` (centres undefined), the inhibition is reported as inconclusive: 12%. For `Cc1cc(C)cc(NC(=O)CC(=O)NCc2ccccc2)c1`, the inhibition was “inactive”. For `CCc1ccc(Cn2c(CNS(C)(=O)=O)nc3cccnc32)cc1`, the inhibition was “inactive”. In the case of `CN(C)c1ccc(/C=C/c2c([N+](=O)[O-])c(=O)n(C)c(=O)n2C)cc1`, the inhibition is reported as “inactive”. In the case of `CCc1c(C#N)c(N)nc(SCc2ccccc2C)c1C#N`, the inhibition is reported as “inactive”. With `CC(C)c1nc(CS(C)(=O)=O)n(-c2cccc3cccnc23)n1` the inhibition was inconclusive: 15%. With `C=CCOc1ccccc1CN1CCN(c2ccc([N+](=O)[O-])cc2)CC1` the inhibition was inconclusive: 22%. With `CCC(C)N(Cc1ccc(C)cc1)Cc1nccs1` (centres undefined) the inhibition was inconclusive: 16%. With `O=C1CCC2(CCCO2)CCN1Cc1nccn1Cc1ccccc1` (centres undefined) the inhibition was inconclusive: 16%. `NS(=O)(=O)c1ccc(CCN=CC2=C(O)c3ccccc3C2=O)cc1` was tested, and the inhibition was “inactive”. For `CC1=C(C(=O)OC(C)C)C(c2ccncc2)c2c(nc(SCc3ccccc3)[nH]c2=O)N1` (centres undefined), the inhibition was inconclusive: 12%. `CCOC(=O)c1c(C)n(-c2ccc(OCC)cc2)c2ccc(OC)cc12` was tested, and the inhibition was “inactive”. `O=C(NCc1ccc(-n2cncn2)cc1)c1scc2c1OCCO2` was tested, and the inhibition was inconclusive: 14%. With `COc1ccc(-c2[nH]ncc2Oc2ccc(F)cc2)c(O)c1` the inhibition was inconclusive: 11%. `CSCCC1COC(c2cccs2)=N1` (centres undefined) was tested, and the inhibition was inconclusive: 17%. `COc1ccc(OC)c(C2C(C(=O)Nc3cc(C)ccn3)=C(C)NC3=C2C(=O)CCC3)c1` (centres undefined) was tested, and the inhibition was “inactive”. In the case of `Cc1ccc(-c2noc([C@@H]3C[C@H](NS(=O)(=O)c4ccc(C)cc4)CN3C)n2)cc1`, the inhibition is reported as “inactive”. For `COc1ccccc1NC(=O)c1c(C)c(-c2ccccc2)nc2ccccc12`, the inhibition was “inactive”. `Nc1[nH]nc2nc(N3CCCCC3)nc(-c3ccco3)c12` was tested, and the inhibition was inconclusive: 10%. In the case of `Cc1ccc(NC(=O)CNC(=O)C2(N3CCCC3)CCCC2)c(F)c1`, the inhibition is reported as inconclusive: 17%. With `Cc1ccccc1C(=O)N1CCC(c2nn3c(C(C)C)nnc3s2)CC1` the inhibition was “inactive”. In the case of `CC(=O)N[C@H]1CC[C@]2(C)CC[C@@H]([C@H](C)C(=O)NCc3ccccn3)[C@H](O)[C@H]2[C@@H]1C`, the inhibition is reported as inconclusive: 12%. For `CC1(C)CC(=O)C2=C(C1)NC1=C(C(=O)c3ccccc31)C2c1cc(Br)ccc1O` (centres undefined), the inhibition was inconclusive: 20%. In the case of `CCOC(=O)CSc1nc2c(sc3ccccc32)c(=O)n1CCO`, the inhibition is reported as inconclusive: 13%. With `O=C(NCc1ccc2c(c1)OCO2)c1coc2nc3ccccc3nc12` the inhibition was inconclusive: 13%. With `CCC1=NC2(CCN(C(=O)C(CC)N3Cc4ccccc4C3=O)CC2)C(=O)N1` (centres undefined) the inhibition was inconclusive: 10%. With `O=C(CCc1nc2sc3c(c2c(=O)[nH]1)CCCC3)NCCc1ccc(Cl)cc1` the inhibition was inconclusive: 18%. With `O=C(Nc1c(-c2ccc(F)cc2)nc2ccccn12)C1CC1` the inhibition was “inactive”. With `O=C(c1ccc([N+](=O)[O-])cc1Cl)N1CCN(c2ncccn2)CC1` the inhibition was “inactive”. With `O=C(c1ccc(F)cc1)N(c1ccc(Br)cc1)C1C=CS(=O)(=O)C1` (centres undefined) the inhibition was “inactive”.

— PubChem BioAssay AID1259354 (Paczesny and Yang Labs, IUPUI and University of Michigan, 2018)
